Source: US20160046597A1, “RORC2 INHIBITORS AND METHODS OF USE THEREOF” (PFIZER INC., priority 2013, published 2016)

The chains behind the UniProt entries cited, without tags or fusion partners. Residues count along the entry.
UniProt P51449, 269-508 limits assumed: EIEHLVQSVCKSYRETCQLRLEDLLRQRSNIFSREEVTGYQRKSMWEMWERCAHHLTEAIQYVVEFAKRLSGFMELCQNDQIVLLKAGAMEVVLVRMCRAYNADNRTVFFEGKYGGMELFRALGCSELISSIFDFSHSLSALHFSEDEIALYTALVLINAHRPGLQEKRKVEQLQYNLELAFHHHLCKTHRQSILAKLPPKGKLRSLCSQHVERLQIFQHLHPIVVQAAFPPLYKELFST

Biological target: RORC2 ligand binding domain (6-His-RORC2 LBD) (Homo sapiens, UniProt P51449)
Assay: Co-activator recruitment by TR-FRET (RORC2 FRET)
Format: biochemical
Conditions: read-out: RORC2 FRET IC50, 6.3 nM RORC2 LBD, 200 nM SRC1-2 coactivator peptide, 3 hours room temperature

With N#Cc1cccc(CCC(=O)Nc2ccc3[nH]cc(C4CCN(C(=O)C5CCCC5)CC4)c3c2)c1 the IC50 was 3.41 µM.

Structures were worked out from names or drawings and are uncertain.
